Assay results from article PMC11078990, “Identification and characterization of small molecule inhibitors of the LINE-1 retrotransposon endonuclease” (Nature Communications, 2024).

Protein sequences, listed by entry. Tags and fused reporters are not part of them.
UniProt P27695, whole entry: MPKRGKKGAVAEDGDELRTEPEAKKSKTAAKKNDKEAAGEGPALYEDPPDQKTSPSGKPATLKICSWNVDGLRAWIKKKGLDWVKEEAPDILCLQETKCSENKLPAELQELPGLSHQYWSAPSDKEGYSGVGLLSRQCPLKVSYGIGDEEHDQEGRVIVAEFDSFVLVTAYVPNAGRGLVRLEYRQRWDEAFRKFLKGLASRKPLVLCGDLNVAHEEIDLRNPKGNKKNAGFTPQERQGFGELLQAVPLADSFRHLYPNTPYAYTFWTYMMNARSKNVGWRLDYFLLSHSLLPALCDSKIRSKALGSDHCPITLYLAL

Molecular target: APE1 (Homo sapiens, UniProt P27695)
Assay: APE1 fluorescent oligonucleotide activity assay (abasic site substrate)
Format: biochemical
Details: 25 µM; Supplementary Fig. 6b, replicates 1-3

## CCn1c2ccccc2c2cc(/C=N\Nc3cc(C)nc4cc5c(cc34)OCO5)ccc21
  Percent APE1 activity, replicates: 0.4024%, 0.4746%, -0.4799%

A number of entries come with more than one value. Only these are listed. An entry can have further records. Values that stand side by side differ, and nothing given here explains why; dose, time, organism, isomer or construct need not be as stated for each record.
